Reference: article PMC3163911
No constants are given. Whether binding was seen depends on the method and setting. Some results given as binding are weak or reduced against the parent protein; the word gives no strength. Sequences can lack the tags named with a protein.

Target: SARS-CoV nucleocapsid protein (yeast two-hybrid fusion) (SARS-CoV) (UniProt P59595)
Experiment: two-hybrid

B1: cytochrome p450 subfamily 4F polypeptide 3 (CYP4F3A) (yeast two-hybrid fusion) (protein, UniProt Q08477-1 1-520)
chain: MPQLSLSSLGLWPMAASPWLLLLLVGASWLLARILAWTYTFYDNCCRLRCFPQPPKRNWFLGHLGLIHSSEEGLLYTQSLACTFGDMCCWWVGPWHAIVRIFHPTYIKPVLFAPAAIVPKDKVFYSFLKPWLGDGLLLSAGEKWSRHRRMLTPAFHFNILKPYMKIFNESVNIMHAKWQLLASEGSARLDMFEHISLMTLDSLQKCVFSFDSHCQEKPSEYIAAILELSALVTKRHQQILLYIDFLYYLTPDGQRFRRACRLVHDFTDAVIQERRRTLPSQGVDDFLQAKAKSKTLDFIDVLLLSKDEDGKKLSDEDIRAEADTFMFEGHDTTASGLSWVLYHLAKHPEYQERCRQEVQELLKDREPKEIEWDDLAQLPFLTMCIKESLRLHPPVPAVSRCCTQDIVLPDGRVIPKGIICLISVFGTHHNPAVWPDPEVYDPFRFDPKNIKERSPLAFIPFSAGPRNCIGQAFAMAEMKVVLGLTLLRFRVLPDHTEPRRKPELVLRAEGGLWLRVEPLS
  binding: binds
